Biological target: T1, Peroxisome proliferator-activated receptor delta (Homo sapiens, UniProt Q03181)
T1 sequence (Q03181 whole entry): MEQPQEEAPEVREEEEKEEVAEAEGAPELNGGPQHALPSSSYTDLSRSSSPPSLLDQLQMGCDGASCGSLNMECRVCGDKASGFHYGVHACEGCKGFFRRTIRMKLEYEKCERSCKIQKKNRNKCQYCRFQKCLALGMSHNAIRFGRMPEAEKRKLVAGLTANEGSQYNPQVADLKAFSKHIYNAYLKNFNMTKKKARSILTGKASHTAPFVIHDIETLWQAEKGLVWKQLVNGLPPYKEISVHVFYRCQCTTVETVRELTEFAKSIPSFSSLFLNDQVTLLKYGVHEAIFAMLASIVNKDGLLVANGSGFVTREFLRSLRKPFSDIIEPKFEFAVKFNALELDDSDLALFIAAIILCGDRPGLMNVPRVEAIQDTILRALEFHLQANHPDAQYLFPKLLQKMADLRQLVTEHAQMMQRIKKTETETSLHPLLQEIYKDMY

| Compound | IC50 |
| --- | --- |
| CCCc1c(OCCCn2nnc3cc(CC(=O)O)ccc32)ccc2c(C(F)(F)F)noc12 | 79 nM |
| CCCc1c(OCCCn2ncc3cc(CC(=O)O)ccc32)ccc2c(C(F)(F)F)noc12 | 24 nM |

From ChEMBL document CHEMBL1148661, “SAR studies: designing potent and selective LXR agonists” (Bioorg Med Chem Lett, 2006)
